Results deposited as PubChem BioAssay AID602196 (INSERM, 2012).
Assay: 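Modifiers of cisplatin sensitivity in A549 cells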. System: human A549 lung cancer cells. Reagent: siRNA pair against human genes. Time to read-out: 48 h transfection before cisplatin; time from cisplatin to read-out not stated. Challenge: cisplatin at a dose killing half of control-siRNA cells; exact dose and duration not given. Measurement: 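Shift in cisplatin death relative to control siRNA, from -50 (all cells die) to +50 (no cells die); siRNAs harmful on their own scored 0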. Reading the numbers: two-siRNA summed score (-2 to +2): higher = both siRNAs protect from cisplatin killing; -2 means both sensitise; mean protection from cisplatin (shift in death): higher = protection from cisplatin killing. Call rule: 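siRNAs harmful alone (LDH or WST-1) get 0; others get +1 for less and -1 for more cisplatin killing; genes are active when the two siRNAs give the same sign, summing to ±2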. Meaning of the calls: active = both siRNAs shift cisplatin killing the same way; inactive = no consistent shift, or siRNA harmful alone.
The deposit covers about 23,000 reagents; this is a random part of them. 455 of them (2%) count as active. 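Active includes both protection and sensitisation; some change values fall well beyond the stated -50 to +50 range.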 Entries without a mark were called inactive. Further read-outs or replicates are left out here. Not given: the amount of reagent.

CNTNAP4 [SID131508105]: two-siRNA summed score (-2 to +2) = 0; mean protection from cisplatin (shift in death) (%) = 0.6
ZNF225 [SID131519730]: two-siRNA summed score (-2 to +2) = 1; mean protection from cisplatin (shift in death) (%) = 7.2
FANCF [SID131517062]: two-siRNA summed score (-2 to +2) = 0; mean protection from cisplatin (shift in death) (%) = 12.3
CHST11 [SID131513858]: two-siRNA summed score (-2 to +2) = 0; mean protection from cisplatin (shift in death) (%) = 7.1
LOC390358 [SID131510353]: two-siRNA summed score (-2 to +2) = 0; mean protection from cisplatin (shift in death) (%) = 3.2
ABRACL [SID131507082]: two-siRNA summed score (-2 to +2) = 0; mean protection from cisplatin (shift in death) (%) = -0.6
TEX30 [SID131517748]: two-siRNA summed score (-2 to +2) = 0; mean protection from cisplatin (shift in death) (%) = 14.6
EIF4G1 [SID131514025]: two-siRNA summed score (-2 to +2) = 0; mean protection from cisplatin (shift in death) (%) = 7.3
GALNT5 [SID131520992]: two-siRNA summed score (-2 to +2) = 1; mean protection from cisplatin (shift in death) (%) = 11.8
AACS [SID131512378]: two-siRNA summed score (-2 to +2) = 0; mean protection from cisplatin (shift in death) (%) = 5.4
CFHR1 [SID131518777]: two-siRNA summed score (-2 to +2) = 0; mean protection from cisplatin (shift in death) (%) = 27
PTPN18 [SID131502659]: two-siRNA summed score (-2 to +2) = -1; mean protection from cisplatin (shift in death) (%) = 1.3
ARL4C [SID131521552]: two-siRNA summed score (-2 to +2) = 1; mean protection from cisplatin (shift in death) (%) = 13.9
LOC401054 [SID131520970]: two-siRNA summed score (-2 to +2) = 1; mean protection from cisplatin (shift in death) (%) = 11.7
LOC341392 [SID131515578]: two-siRNA summed score (-2 to +2) = 0; mean protection from cisplatin (shift in death) (%) = 9.4
LOC392271 [SID131510464]: two-siRNA summed score (-2 to +2) = 0; mean protection from cisplatin (shift in death) (%) = 3.3

A stretch taken from the entries so far, as a working copy:
ZNF225 [SID131519730]: two-siRNA summed score (-2 to +2) = 1; mean protection from cisplatin (shift in death) (%) = 7.2
FANCF [SID131517062]: two-siRNA summed score (-2 to +2) = 0; mean protection from cisplatin (shift in death) (%) = 12.3
CHST11 [SID131513858]: two-siRNA summed score (-2 to +2) = 0; mean protection from cisplatin (shift in death) (%) = 7.1

Further reagents follow.
SLC22A8 [SID131508183]: two-siRNA summed score (-2 to +2) = 0; mean protection from cisplatin (shift in death) (%) = 0.7
CTDNEP1 [SID131504709]: two-siRNA summed score (-2 to +2) = 0; mean protection from cisplatin (shift in death) (%) = -4.7
MND1 [SID131520644]: two-siRNA summed score (-2 to +2) = 1; mean protection from cisplatin (shift in death) (%) = 10.6
TBXT [SID131510451]: two-siRNA summed score (-2 to +2) = 0; mean protection from cisplatin (shift in death) (%) = 3.3
UBXN4 [SID131517008]: two-siRNA summed score (-2 to +2) = 0; mean protection from cisplatin (shift in death) (%) = 12.2
LOC442339 [SID131515965]: two-siRNA summed score (-2 to +2) = 0; mean protection from cisplatin (shift in death) (%) = 10
LOC441928 [SID131514069]: two-siRNA summed score (-2 to +2) = 0; mean protection from cisplatin (shift in death) (%) = 7.3
LOC389242 [SID131511685]: two-siRNA summed score (-2 to +2) = 0; mean protection from cisplatin (shift in death) (%) = 4.6
PDZRN3 [SID131501149]: two-siRNA summed score (-2 to +2) = -1; mean protection from cisplatin (shift in death) (%) = -12
ICMT-DT [SID131508005]: two-siRNA summed score (-2 to +2) = 0; mean protection from cisplatin (shift in death) (%) = 0.5
IPO7 [SID131516254]: two-siRNA summed score (-2 to +2) = 0; mean protection from cisplatin (shift in death) (%) = 10.5
BNC2 [SID131504529]: two-siRNA summed score (-2 to +2) = 0; mean protection from cisplatin (shift in death) (%) = -5.1
WNK2 [SID131504705]: two-siRNA summed score (-2 to +2) = 0; mean protection from cisplatin (shift in death) (%) = -4.7
DEFA4 [SID131504445]: two-siRNA summed score (-2 to +2) = 0; mean protection from cisplatin (shift in death) (%) = -5.4
RTCA [SID131504205]: two-siRNA summed score (-2 to +2) = 0; mean protection from cisplatin (shift in death) (%) = -6.1
